# Reference: PubChem BioAssay AID1259308 (NCATS, 2017)
# Purpose: 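Candidate targets for better recombinant protein yield in mammalian cells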 (primary screen)
# Cell system: human HEK293 embryonic kidney cells stably expressing firefly luciferase (HEK-CMV-Luc2-Hygro)
# Reagents: single siRNA against human genes, 0.8 pmol siRNA per well
# Timing: 72 h
# Measured: 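Reporter luminescence and viable-cell signal on separate replicate plates, given as percent of non-targeting control and median/MAD z-scores, plus per-cell luciferase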
# Direction: total luciferase, z-score and total luciferase, % of control: higher = more reporter protein produced; luciferase per cell, z-score: higher = more reporter output per viable cell
# Call rule: 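Active when the median/MAD z-score for overall luciferase is greater than 3; a gene was taken forward for validation with new siRNAs if at least two of its three siRNAs passed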
# Calls: active = raised luciferase; inactive = no rise
# Shown is an unselected part of about 59,000 reagents tested. About 1,510 of them (2.6%) count as active. 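Calls use total luciferase alone and ignore viability, so some active siRNAs may act by altering cell number.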 The numbers tell different reagents against one gene apart. Not all columns of the deposit are shown.
gene,reagent no.,"total luciferase, z-score","total luciferase, % of control","luciferase per cell, z-score",Outcome
TEX30 (GeneID 93081),1,1.32,108,2.3,inactive
TEX30 (GeneID 93081),2,1.25,107,0.156,inactive
TEX30 (GeneID 93081),3,0.226,86.4,0.558,inactive
DHX30 (GeneID 22907),1,1.06,103,0.449,inactive
DHX30 (GeneID 22907),2,-0.406,73.8,-0.28,inactive
DHX30 (GeneID 22907),3,-2.15,39.1,-1.85,inactive
CLEC12A (GeneID 160364),1,-0.216,77.6,0.196,inactive
CLEC12A (GeneID 160364),2,1.84,118,2.45,inactive
CLEC12A (GeneID 160364),3,-0.974,62.5,-0.385,inactive

Individual results from above.
Under “Outcome”, CLEC12A (GeneID 160364) #3 is entered as inactive
TEX30 (GeneID 93081) #1, total luciferase, % of control → 108

Continued.
gene,reagent no.,"total luciferase, z-score","total luciferase, % of control","luciferase per cell, z-score",Outcome
SYNGR4 (GeneID 23546),1,-1.19,58.2,-0.516,inactive
SYNGR4 (GeneID 23546),2,1.38,109,0.76,inactive
SYNGR4 (GeneID 23546),3,1.32,108,0.551,inactive
SDC2 (GeneID 6383),1,0.0375,82.6,-0.046,inactive
SDC2 (GeneID 6383),2,-1.05,61.1,-0.69,inactive
SDC2 (GeneID 6383),3,1.67,115,0.998,inactive
PRSS42P (GeneID 339906),1,2.87,139,2.23,inactive
PRSS42P (GeneID 339906),2,-1.4,54.1,-1.34,inactive
PRSS42P (GeneID 339906),3,0.0462,82.8,-0.361,inactive
QKI (GeneID 9444),1,0.213,86.1,-0.466,inactive
QKI (GeneID 9444),2,0.294,87.7,-0.164,inactive
QKI (GeneID 9444),3,2.06,123,1.4,inactive
EMP2P1 (GeneID 391359),1,0.897,99.7,0.995,inactive
EMP2P1 (GeneID 391359),2,-0.331,75.3,-0.0985,inactive
EMP2P1 (GeneID 391359),3,-0.872,64.5,-0.934,inactive
